Publication PMC9181416
Results are given in words; binding and its absence hold for the method and conditions named. Some binding calls cover weakened binding; strength is not graded here.

T1: PIN5 loop, amino acids 152-200 (Arabidopsis thaliana) (UniProt Q9FFD0)
T1 sequence: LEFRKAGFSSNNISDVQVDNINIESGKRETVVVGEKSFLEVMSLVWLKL

T2: PIN8 loop, amino acids 157-218 (Arabidopsis thaliana) (UniProt Q9LFP6)
T2 sequence: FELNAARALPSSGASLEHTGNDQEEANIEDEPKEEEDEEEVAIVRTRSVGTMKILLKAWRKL

T3: PIN2 hydrophilic loop, amino acids 167-484 (Arabidopsis thaliana) (UniProt Q9LU77)
T3 sequence: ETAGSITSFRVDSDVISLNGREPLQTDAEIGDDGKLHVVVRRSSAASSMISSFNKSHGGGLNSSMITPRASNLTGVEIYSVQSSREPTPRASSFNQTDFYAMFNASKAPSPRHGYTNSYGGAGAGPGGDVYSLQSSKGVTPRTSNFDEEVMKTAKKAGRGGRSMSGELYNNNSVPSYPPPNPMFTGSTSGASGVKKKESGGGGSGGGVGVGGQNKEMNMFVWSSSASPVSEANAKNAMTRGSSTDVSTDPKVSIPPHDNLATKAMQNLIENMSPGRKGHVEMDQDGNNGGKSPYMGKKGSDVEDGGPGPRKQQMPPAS

T4: PIN7 hydrophilic loop, amino acids 167-460 (Arabidopsis thaliana) (UniProt Q940Y5)
T4 sequence: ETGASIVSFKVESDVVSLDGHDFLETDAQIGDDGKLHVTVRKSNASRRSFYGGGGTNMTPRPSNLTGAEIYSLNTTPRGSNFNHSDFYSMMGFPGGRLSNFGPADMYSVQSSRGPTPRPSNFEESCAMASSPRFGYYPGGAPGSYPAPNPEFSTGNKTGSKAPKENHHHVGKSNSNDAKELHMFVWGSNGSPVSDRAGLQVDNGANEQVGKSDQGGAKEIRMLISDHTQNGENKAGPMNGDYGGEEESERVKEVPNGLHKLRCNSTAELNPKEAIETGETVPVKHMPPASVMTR

T5: PIN4 hydrophilic loop, amino acids 168-457 (Arabidopsis thaliana) (UniProt Q8RWZ6)
T5 sequence: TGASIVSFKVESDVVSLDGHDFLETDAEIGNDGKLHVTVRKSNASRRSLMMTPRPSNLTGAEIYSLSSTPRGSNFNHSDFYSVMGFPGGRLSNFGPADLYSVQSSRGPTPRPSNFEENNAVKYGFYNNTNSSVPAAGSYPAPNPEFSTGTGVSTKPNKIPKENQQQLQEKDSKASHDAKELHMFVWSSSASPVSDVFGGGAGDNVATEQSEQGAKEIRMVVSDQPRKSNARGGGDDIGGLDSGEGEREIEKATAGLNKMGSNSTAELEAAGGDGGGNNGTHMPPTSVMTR

T6: PIN1 hydrophilic loop (PIN1 HL), amino acids 158-460 (Arabidopsis thaliana) (UniProt Q9C6B8)
T6 sequence: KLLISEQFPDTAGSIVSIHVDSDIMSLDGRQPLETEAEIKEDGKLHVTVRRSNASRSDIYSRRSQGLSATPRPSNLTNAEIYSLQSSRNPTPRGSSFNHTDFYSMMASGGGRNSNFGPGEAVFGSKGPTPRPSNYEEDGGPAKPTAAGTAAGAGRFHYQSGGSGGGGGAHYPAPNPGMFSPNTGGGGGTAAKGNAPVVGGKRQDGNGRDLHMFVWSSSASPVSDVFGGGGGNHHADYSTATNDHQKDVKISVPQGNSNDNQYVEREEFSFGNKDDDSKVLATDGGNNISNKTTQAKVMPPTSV

T7: PIN3 hydrophilic loop, amino acids 167-482 (Arabidopsis thaliana) (UniProt Q9S7Z8)
T7 sequence: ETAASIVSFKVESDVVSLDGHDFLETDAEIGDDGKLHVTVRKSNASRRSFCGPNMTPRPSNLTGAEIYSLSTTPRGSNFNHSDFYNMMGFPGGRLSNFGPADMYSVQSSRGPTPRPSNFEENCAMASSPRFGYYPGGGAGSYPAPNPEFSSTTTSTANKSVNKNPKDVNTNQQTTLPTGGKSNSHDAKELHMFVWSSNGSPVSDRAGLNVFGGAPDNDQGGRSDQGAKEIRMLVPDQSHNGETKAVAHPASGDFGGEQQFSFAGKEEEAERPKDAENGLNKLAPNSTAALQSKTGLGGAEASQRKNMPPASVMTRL

B1: PIN6 hydrophilic loop, amino acids 167-411 (domain or fragment, UniProt Q9SQH6 167-411)
chain: GQAAGSIAKIQVDDDVISLDGMDPLRTETETDVNGRIRLRIRRSVSSVPDSVMSSSLCLTPRASNLSNAEIFSVNTPNNRFFHGGGGSGTLQFYNGSNEIMFCNGDLGGFGFTRPGLGASPRRLSGYASSDAYSLQPTPRASNFNELDVNGNGTPVWMKSPAAGRIYRQSSPKMMWESGQRHAAKDINGSVPEKEISFRDALKAAPQATAAGGGASMEEGAAGKDTTPVAAIGKQEMPSAIVMMR
B2: PIN7 hydrophilic loop, amino acids 167-460 (domain or fragment, UniProt Q940Y5 167-460)
chain: T4 sequence
B3: PIN8 loop, amino acids 157-218 (domain or fragment, UniProt Q9LFP6 157-218)
chain: T2 sequence
B4: PIN2 hydrophilic loop, amino acids 167-484 (domain or fragment, UniProt Q9LU77 167-484)
chain: T3 sequence
B5: PIN4 hydrophilic loop, amino acids 168-457 (domain or fragment, UniProt Q8RWZ6 168-457)
chain: T5 sequence
B6: PIN3 hydrophilic loop, amino acids 167-482 (domain or fragment, UniProt Q9S7Z8 167-482)
chain: T7 sequence
B7: PIN1 hydrophilic loop (PIN1 HL), amino acids 158-460 (domain or fragment, UniProt Q9C6B8 158-460)
chain: T6 sequence

Each binder was assayed against T1, PIN5 loop, amino acids 152-200 (Arabidopsis thaliana) (assay: two-hybrid; PJ69-2A yeast, constructs paired by mating in a matrix; loops fused to GAL4 AD (pDEST22) and GAL4 BD (pDEST32); growth on solid -L -T -H drop-out medium with 3 mM 3AT).
With LEFRKAGFSSNNISDVQVDNINIESGKRETVVVGEKSFLEVMSLVWLKL (domain or fragment, UniProt Q9FFD0 152-200) [PIN5 loop, amino acids 152-200] the binding was “no binding”.
With B1 the binding was “no binding”.
B2 was tested, and the binding was “no binding”.
With B3 the binding was “no binding”.

The binders below were run against T2, PIN8 loop, amino acids 157-218 (Arabidopsis thaliana) in the same assay as above.
For B1, the binding was “no binding”.
B3 was tested, and the binding was “no binding”.

These binders were tested against T3, PIN2 hydrophilic loop, amino acids 167-484 (Arabidopsis thaliana) in the same assay as above.
For B4, the binding was “no binding”.
In the case of LEFRKAGFSSNNISDVQVDNINIESGKRETVVVGEKSFLEVMSLVWLKL (domain or fragment, UniProt Q9FFD0 152-200) [PIN5 loop, amino acids 152-200], the binding is reported as “no binding”.
B1 was tested, and the binding was “no binding”.
In the case of B2, the binding is reported as “no binding”.
In the case of B3, the binding is reported as “no binding”.
For B5, the binding was “no binding”.
B6 was tested, and the binding was “no binding”.

What follows are binders tested against T4, PIN7 hydrophilic loop, amino acids 167-460 (Arabidopsis thaliana) in the same assay as above.
B1 was tested, and the binding was “no binding”.
For B2, the binding was “no binding”.
B3 was tested, and the binding was “no binding”.

What follows are binders tested against T5, PIN4 hydrophilic loop, amino acids 168-457 (Arabidopsis thaliana) in the same assay as above.
With LEFRKAGFSSNNISDVQVDNINIESGKRETVVVGEKSFLEVMSLVWLKL (domain or fragment, UniProt Q9FFD0 152-200) [PIN5 loop, amino acids 152-200] the binding was “no binding”.
For B1, the binding was “no binding”.
With B2 the binding was “no binding”.
With B3 the binding was “no binding”.
In the case of B5, the binding is reported as “no binding”.

What follows are binders tested against T6, PIN1 hydrophilic loop (PIN1 HL), amino acids 158-460 (Arabidopsis thaliana) in the same assay as above.
For B7, the binding was “binds”.
With B4 the binding was “no binding”.
LEFRKAGFSSNNISDVQVDNINIESGKRETVVVGEKSFLEVMSLVWLKL (domain or fragment, UniProt Q9FFD0 152-200) [PIN5 loop, amino acids 152-200] was tested, and the binding was “no binding”.
In the case of B1, the binding is reported as “no binding”.
B2 was tested, and the binding was “no binding”.
For B3, the binding was “no binding”.
B5 was tested, and the binding was “no binding”.
B6 was tested, and the binding was “no binding”.

Each binder was assayed against T7, PIN3 hydrophilic loop, amino acids 167-482 (Arabidopsis thaliana) in the same assay as above.
LEFRKAGFSSNNISDVQVDNINIESGKRETVVVGEKSFLEVMSLVWLKL (domain or fragment, UniProt Q9FFD0 152-200) [PIN5 loop, amino acids 152-200] was tested, and the binding was “no binding”.
In the case of B1, the binding is reported as “no binding”.
For B2, the binding was “no binding”.
With B3 the binding was “no binding”.
With B5 the binding was “no binding”.
For B6, the binding was “no binding”.
